Library screening results

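Viability assay of Plasmodium falciparum sporozoites; the read-out is not stated. The concentration is filed as 10 mM, unlikely as a test dose, so the dose is not known. Higher reads as lower viability (inferred: compounds with an IC50 in retests scored well above the rest). Strong results were mostly tested again. Of about 34,000 compounds tested this way, about 280 (0.84%) reached 50% or more in at least one test.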

Each number is a percent effect as filed. The record does not define 0% and 100%; most values in the screen are far below 50% and negative numbers occur (in some assays of this library far below -100). Compounds were drawn at random from those tested, without regard to their results. Two or more numbers in one place are separate tests of the same structure; such repeats can differ widely.

{"structure": "CCC(=O)N1CCCN(c2cncc(-n3nc(C)cc3C)n2)CC1", "Percent Effect": -18.99}
{"structure": "Cc1noc(C2CCCN(C(=O)CCNc3ncccn3)C2)n1", "stereo": "stereo not given", "Percent Effect": 9.866}
{"structure": "CCc1cc(NCC(O)CN2CCCCC2)n2ncnc2n1", "stereo": "stereo not given", "Percent Effect": -5.75}
{"structure": "O=C(O)C(F)(F)F.O=C(O)C(F)(F)F.c1cncc(C2COC3(CCN(CC4CC4)CC3)C2)c1", "stereo": "stereo not given", "Percent Effect": -7.215}
{"structure": "Cc1c[nH]c(C2CCCN(C(=O)CCc3c(C)n[nH]c3C)C2)n1", "stereo": "stereo not given", "Percent Effect": -1.489}
{"structure": "O=C(O)C(F)(F)F.O=C(O)C(F)(F)F.c1ccc(CN2CCC3(CC2)CCN(c2ccccn2)C3)nc1", "Percent Effect": 11.38}
{"structure": "Cn1nc(Br)nc1Sc1ccccc1NC(=O)C1CC1", "Percent Effect": 1.88}
{"structure": "[H][C@@]12CCCCCN(C(=O)CC)[C@@]1([H])[C@H](c1cccc(F)c1)CN2C", "Percent Effect": 12.45}
{"structure": "Cc1nc(CNC(=O)NCC(O)c2cccc(Cl)c2)cs1", "stereo": "stereo not given", "Percent Effect": 3.412}
{"structure": "Oc1cc(C2CCCCN2C2CCCC2)nc(-c2cccnc2)n1", "stereo": "stereo not given", "Percent Effect": 3.681}
{"structure": "Cc1nc(CN2CCN(C(=O)COCc3ccccc3)CC2)no1", "Percent Effect": -7.843}
{"structure": "Cn1cc(C2CCCN2C(=O)CCCOc2ccc(F)cc2F)cn1", "stereo": "stereo not given", "Percent Effect": 1.891}
{"structure": "COCCN1CCC2(CC1)CC(NC(=O)CC1CC1)c1ccccc1O2.O=C(O)C(F)(F)F", "stereo": "stereo not given", "Percent Effect": 5.517}
{"structure": "CN1CCCCC1c1ncc2c(n1)CCN(Cc1ccc(F)cc1)C2", "stereo": "stereo not given", "Percent Effect": -2.681}
{"structure": "Cc1cc(F)ccc1OC1(C(=O)O)CCN(Cc2cccnc2N)CC1", "Percent Effect": -3.648}
{"structure": "CC(=O)N1CCC(c2noc(C3CCC(=O)N3)n2)CC1", "stereo": "stereo not given", "Percent Effect": 6.848}
{"structure": "O=C(O)C(F)(F)F.O=C(O)C(F)(F)F.[H][C@@]12COC[C@]1([H])[C@@H](OCC1CCN(C)CC1)CN2Cc1c(C)noc1C", "Percent Effect": 9.332}
{"structure": "Cc1csc(N2CCN(C(=O)c3cc(C4CC4)[nH]n3)CC2)n1", "Percent Effect": -21.26}
{"structure": "[H][C@]12CC[C@](O)(CC1)C(CO)N2C(=O)Nc1ccccc1", "stereo": "stereo not given in full", "Percent Effect": -12.81}
{"structure": "COc1cccc(C2CCCN2Cc2nc3c(cnn3C)c(=O)[nH]2)c1", "stereo": "stereo not given", "Percent Effect": -2.549}
{"structure": "[H][C@@]12CCN(C(=O)COc3ccccc3OC)C[C@]1(COC)CCO2", "Percent Effect": 16.37}
{"structure": "Cc1cc(C)n(CC2CCCCN2C(=O)c2ccsc2)n1", "stereo": "stereo not given", "Percent Effect": -5.652}
{"structure": "O=C(c1cccnc1)N1CCCC(c2ncncc2-c2ccncc2)C1", "stereo": "stereo not given", "Percent Effect": -2.038}
{"structure": "COCCCNC(=O)Nc1ccc(OCc2noc(C3CC3)n2)cc1", "Percent Effect": 3.622}
{"structure": "COc1ccccc1CN(C)C(=O)c1cc(CN2CCC(O)CC2)on1", "Percent Effect": 2.479}
{"structure": "CCc1ncc(CN2CCOC(Cc3cccc(F)c3)C2)cn1", "stereo": "stereo not given", "Percent Effect": 0.9516}
{"structure": "O=C(CO)N1CCCC(c2cc(C(F)(F)F)[nH]n2)C1", "stereo": "stereo not given", "Percent Effect": 0.2558}
{"structure": "CO[C@H]1CN(S(=O)(=O)c2ccccc2F)C[C@@]12CCCO2", "Percent Effect": 10.05}
{"structure": "O=C(CC1CCCCC1)N1CCN(C(=O)NCc2ccccn2)CC1", "Percent Effect": 0.4624}
{"structure": "CC(C)c1nnc2n1CCN(Cc1ncc(-c3ccccc3)o1)C2", "Percent Effect": 2.88}
{"structure": "COc1cccc(COCC(=O)N2CCCC(c3ccn[nH]3)C2)c1", "stereo": "stereo not given", "Percent Effect": 11.2}
{"structure": "CN(C)CC(=O)N1CCC2(CC1)CN(Cc1cccnc1)C(=O)CO2", "Percent Effect": -3.791}
{"structure": "O=C(COCC(F)(F)F)NS(=O)(=O)c1ccc2c(c1)OCCCO2", "Percent Effect": -4.039}
{"structure": "CN1CCOC(CNC(=O)CCCOCCc2ccccc2)C1", "stereo": "stereo not given", "Percent Effect": "-15.85 and -12.95 and 3.221"}
{"structure": "Cc1ccc(NC2CCN(C(=O)c3ccc(C)o3)CC2)nn1", "Percent Effect": 3.461}
{"structure": "Cc1nn(C)c2sc(C(=O)N3CCCC(n4ccnc4C)C3)cc12", "stereo": "stereo not given", "Percent Effect": -0.1127}
{"structure": "[H][C@@]12CCCO[C@]1([H])[C@H](OCC1CCOCC1)CN2C(=O)c1ccnnc1", "Percent Effect": -5.705}
{"structure": "O=C(NCCNc1ncccn1)C1CC(=O)N(CC(F)(F)F)C1", "stereo": "stereo not given", "Percent Effect": -1.76}
{"structure": "COC(=O)c1ccc(N2CCN(C(=O)c3cccnc3)C(C)C2)cc1", "stereo": "stereo not given", "Percent Effect": 10.53}
{"structure": "Cc1nc(N2CC[C@@H](NC(=O)c3cnccn3)[C@H](O)C2)c2ccsc2n1", "Percent Effect": -8.588}
{"structure": "CO[C@H]1CCN(C(=O)c2ccc3oc(C)cc3c2)C[C@@]12CCCO2", "Percent Effect": 16.07}
{"structure": "CC(c1ccccc1)N(C)C(=O)Cn1cc(NC(=O)C(C)(C)C)cn1", "stereo": "stereo not given", "Percent Effect": -2.216}
{"structure": "[H][C@]1([C@@]2(C)CC[C@H](O)C(C)(C)O2)CC2(CCN(c3cnccn3)CC2)CO1", "Percent Effect": -4.117}
{"structure": "[H][C@@]12CCCN1C[C@@H](Cc1ccccc1)N(Cc1cnn(C=C)c1C)C2", "Percent Effect": -1.399}
{"structure": "COCCC1COC2(CCN(C(=O)c3cccnc3)CC2)C1.O=C(O)C(F)(F)F", "stereo": "stereo not given", "Percent Effect": 4.553}
{"structure": "CC(C)CCN(C(=O)c1ccc(-n2ncc(C#N)c2N)cc1)C1CC1", "Percent Effect": 2.903}
{"structure": "O=C(CO)N1CCC(c2cncc(-c3cccc(Cl)c3)n2)CC1", "Percent Effect": -4.268}
{"structure": "Cc1nn(C)c2cnn(CC(=O)NCCc3ccccc3)c12", "Percent Effect": -2.193}
{"structure": "Cc1ccc(-n2nc(C)c3c(C)cc(OCC(=O)NC(C)C)nc32)cc1", "Percent Effect": -5.64}
{"structure": "CC(=O)N1CCCC(Cc2cncc(Br)c2)C1", "stereo": "stereo not given", "Percent Effect": 6.529}

The last 3 entries again:

structure	Percent Effect
Cc1nn(C)c2cnn(CC(=O)NCCc3ccccc3)c12	-2.193
Cc1ccc(-n2nc(C)c3c(C)cc(OCC(=O)NC(C)C)nc32)cc1	-5.64
CC(=O)N1CCCC(Cc2cncc(Br)c2)C1 (stereo not given)	6.529

The values are deposited in ChEMBL (CHEMBL3988442, “University of Dundee, Small-Polar-MMV Screening Library” (2021)).